Consider one substance from PMC7475243.

The assay concerns the target T1, MBP-LecRK5-KD (the OsLecRK5 protein kinase domain tagged with MBP) (rice (Oryza sativa)).
T1 sequence: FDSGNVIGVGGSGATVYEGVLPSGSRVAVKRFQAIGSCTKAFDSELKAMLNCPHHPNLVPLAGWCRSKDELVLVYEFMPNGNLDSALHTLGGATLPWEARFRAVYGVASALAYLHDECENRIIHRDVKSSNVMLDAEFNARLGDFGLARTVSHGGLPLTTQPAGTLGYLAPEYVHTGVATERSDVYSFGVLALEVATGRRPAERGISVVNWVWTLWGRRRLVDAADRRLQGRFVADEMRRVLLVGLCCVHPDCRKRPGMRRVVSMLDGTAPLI
In words: pull-down; amylose resin containing 1 ug MBP-LecRK5-KD or MBP incubated with 1 ug His or His-UGP1 in PBS, rotated at 4 °C for 8 h; western blot with anti-MBP or anti-His; both purified. Background: In western blotting, separated proteins are transferred to a membrane and probed.

Results are given in words; binding and its absence hold for the method and conditions named. Binding can be weak; no strength is given. Tags and fused reporters may be left off the sequences shown.

Turning to “His-UGP1 (recombinant full-length rice UGP1) (enzyme)”, the binding entry is reported as “binds”.
